This is an account of results in the supplement of paper PMC12578635.

± gives the standard deviation of the averaged measurements. Some of the results follow. Single values are uncertain, as repeats are few or missing.

This assay has as its system RAW 264.7 macrophages infected with S. aureus JE2-lux. Briefly: host macrophage viability (CellTiter-Fluor) relative to DMSO vehicle; higher = more viable host cells. The note with it: 10 µM; treatment time 4 h; gentamicin 50 µg/ml.
For the compound `COc1cccc(CNC(=O)CSc2nnc3c4ccccc4n(C)c3n2)c1`, the host macrophage viability worked out at 125%. For `CC(C)N1CCc2c(sc(NC(=O)c3ccc(Br)cc3)c2C(N)=O)C1`, the host macrophage viability came to 147%. Then `Cc1oc(-c2ccc(F)cc2)nc1C(=O)Nc1cccc(-n2cnnc2)c1`, with 122%; and `O=C(CSc1nc(O)c2ccccc2n1)N1CCOCC1`, with 115%; and `COc1ccc(-n2c(=O)[nH]cc(C(=O)N3CCc4ccccc43)c2=O)cc1OC`, with 104.1 ± 0.28%. In the case of `N#C/C(=C\Nc1cc([N+](=O)[O-])ccc1F)c1nc(-c2cccs2)cs1`, the host macrophage viability was 112 ± 19%.

As for `COc1cccc(-c2cc3nc4c(c(O)n3n2)CCC4)c1`, the host macrophage viability turned out to be 115%. Turning to `CCCc1cc(=O)[nH]c(Nc2cc(Cl)ccc2O)n1`, the host macrophage viability is 96%. Then `Cc1ccc(-n2c(C)cs/c2=N\C(=S)Nc2ccccc2)cc1`, with 119%; and `Cc1nn(C)c(C)c1NC(=O)CCn1c(-c2ccc(F)cc2)cc2cccnc21`, with 115%; and `Cc1nn2c(N(C)C)cc(C(C)(C)C)nc2c1-c1ccc(F)cc1`, with 123%. As to `COc1cc(OC)c(NS(=O)(=O)c2cc(-c3cc(C(F)(F)F)on3)cs2)cc1Cl`, the host macrophage viability worked out at 117%. Next, `Cc1ccc2cc(CN(C(=O)Nc3ccccc3F)C3CCCC3)c3nnnn3c2c1`: 109%; `CCn1c(C(=O)NCc2ccccn2)c(N2CCCC2=O)c2cc(F)ccc21`: 113%; `CC[C@@H](Cn1nc(-c2cccs2)ccc1=O)NC(=O)c1cccs1`: 108%. Regarding `COC(=O)C1=C(N)Oc2c(oc(CO)cc2=O)C1c1ccc2c(c1)OCO2` (configuration not stated), the host macrophage viability worked out at 98.1%. Next, `O=C(NCCCC1CCOC1)c1cnn(-c2ccc(F)cc2)c1` (configuration not stated): 109%; `COc1cccc(NCc2cc3c(C)nn(-c4ccc(F)cc4)c3[nH]c2=O)c1`: 116%. With `Nc1ncnc(SC2=NCCCN2)c1[N+](=O)[O-]`, the host macrophage viability amounted to 113%.

Turning to `COc1ccc(C2=C(C)C(N3CCC(C(=O)NCc4ccc5c(c4)OCO5)CC3)=NS2(=O)=O)cc1`, the host macrophage viability amounted to 125%. In the case of `Cc1cccc2sc(NC(=O)CN3C(=O)c4ccccc4S3(=O)=O)nc12`, the host macrophage viability stood at 131%. Consider `O=C(CCn1cnc2c(-c3ccccc3)noc2c1=O)NC1CCS(=O)(=O)C1` (configuration not stated), for which the host macrophage viability is 115%. As to `Cc1cccc2c1NC(=O)C2(O)CC(=O)c1ccc(-c2ccc(Cl)cc2)o1` (configuration not stated), the host macrophage viability worked out at 110%. Take `Cc1cn2c3c(=O)n(C)c(=O)n(C)c3nc2n1CCCn1ccnc1`: the host macrophage viability is 115%. Regarding `CC(=O)Nc1c(C)cc(C)c(NS(=O)(=O)c2ccc3c(c2)NC(=O)CO3)c1C`, the host macrophage viability worked out at 116%. With `COc1ccc(OC)c(CCn2c(=S)[nH]c3c(oc4ccccc43)c2=O)c1`, the host macrophage viability was determined as 136%.

With `CC(=O)c1ccc(S(=O)(=O)Nc2ccc(-n3c(C)nc4ccccc4c3=O)cc2)cc1`, the host macrophage viability stood at 135%. In the case of `O=C(NCc1ccc2c(c1)OCO2)C1CCN(c2nccn3nc(-c4ccc(F)cc4)cc23)CC1`, the host macrophage viability was 135%. In the case of `CN1CCCC(NC(=O)COc2ncnc3ccccc23)C1` (configuration not stated), the host macrophage viability turned out to be 119%. Next, `CCCC(CCC)C(=O)N1CCC(c2nnc(C(=O)Nc3ccccc3C)s2)CC1`: 113%. Then `O=C(NCc1cccs1)c1cnc2cc3c(cc2c1O)OCCO3`, with 104%; and `COc1ccc(NC(=O)C2CCCN2C(=O)NC2CCCCC2)c(OC)c1` (configuration not stated), with 117%. As for `CCOC(=O)c1oc2ccccc2c1NC(=O)c1cccc([N+](=O)[O-])c1`, the host macrophage viability worked out at 121 ± 8%. For `Cc1ccc(CNC(=O)CCc2nc(N3CCCC3)c3c(C)noc3n2)cc1`, the host macrophage viability came to 102%. Consider `CC(NC(=O)COc1ncnc2onc(-c3cccc(F)c3)c12)c1ccccc1` (configuration not stated), for which the host macrophage viability is 129%. For the compound `Cc1ccc(/C=C2/S/C(=N/c3ccc(O)cc3)NC2=O)o1`, the host macrophage viability stood at 99.2 ± 14%. Turning to `Cc1[nH]c2nc(CNc3cccc(Cl)c3C)nn2c(=O)c1C`, the host macrophage viability was determined as 107%. Next, `Cc1nn(-c2ccccc2)c2ncc(C(=O)NCCC(C)C)c(NCc3ccc(Cl)cc3)c12`: 98.3%; `O=C(CCCCn1c(=O)[nH]c2ccsc2c1=O)NCC1CCCO1` (configuration not stated): 110%.

Turning to `Cc1sc2ncnc(SCC(=O)Nc3sc(-c4ccccc4)cc3C(N)=O)c2c1C`, the host macrophage viability was 107%.

For the compound `Cc1n[nH]c2c1C(C(=O)c1cccc(Cl)c1)CC(=O)N2` (configuration not stated), the host macrophage viability was 105%. Take `COc1ccc(C(=O)C2CCN(CC(=O)Nc3ccccc3F)CC2)cc1`: the host macrophage viability was found to be 107%. As to `Cc1n[nH]c2c1C(C(=O)c1ccc3c(c1)OCCO3)CC(=O)N2` (configuration not stated), the host macrophage viability came to 121%. With `Cc1cc2c(cc1C)NC(CC(=O)Nc1ccccc1[N+](=O)[O-])C(=O)N2` (configuration not stated), the host macrophage viability is 95.2%. As for `Cc1ccc(NC(=O)N2CCCC2C(=O)Nc2ccccc2Cl)cc1` (configuration not stated), the host macrophage viability is 106%. As to `COc1ccc(Nc2cc(C)nc(-n3cc([N+](=O)[O-])cn3)n2)cc1Cl`, the host macrophage viability amounted to 118%. Regarding `O=C(CN1N=NC2C(=O)N(c3ccc(Br)cc3)C(=O)C21)Nc1ccccc1[N+](=O)[O-]` (configuration not stated), the host macrophage viability turned out to be 119%. Take `CCn1c(SCc2nnc(-c3ccc(OC)c(OC)c3)o2)nc2ccccc2c1=O`: the host macrophage viability is 102%. As for `Cc1ccc(C(=O)Nc2nc(-c3ccc(C)s3)ns2)cc1`, the host macrophage viability was found to be 109%. In the case of `CCN1CCN(c2nc3ncn(CC(=O)Nc4ccc(F)c(C)c4)c(=O)c3s2)CC1`, the host macrophage viability came to 89.6%.

For `COC(=O)c1ccc(C(=O)NC(=S)Nc2nc3c(s2)CCc2ccccc2-3)cc1`, the host macrophage viability amounted to 118 ± 20%. With `O=C(Nc1cccc(Cl)c1)c1cc(-c2ccc3c(c2)OCCO3)on1`, the host macrophage viability came out at 107%.
